PubChem BioAssay AID1671195 | Yale University – 2021
The deposit covers about 22,000 reagents; below is a part drawn at random. Of all reagents, about 1,510 (6.9%) were called active. 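Active includes knockdowns raising or lowering LDL uptake; positive z-scores mean more uptake, negative mean less.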 Entries without a mark were called inactive. Reagent sequences are not shown.

Screen: 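Knockdowns that increase or decrease uptake of fluorescent LDL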 (primary screen)
Cell system: human Huh7 hepatoma cells
Knock-down reagent: siRNA pool against human genes, 18 nM
Time to read-out: about 2 to 2.5 days of knockdown, then 8 h LDL uptake
Conditions: DiI-labelled LDL at 30 µg/ml for 8 h, in lipoprotein-deficient serum medium
Measurement: 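Fluorescent LDL signal imaged in cells, scaled to the plate median, robust z-score for each replicate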
Scale: robust z-score: higher = more LDL uptake after knockdown
Hit rule: 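Active when two or more replicates show a robust z-score above 2 or below -2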

target | PubChem SID | robust z-score, replicate 1 | robust z-score, replicate 2 | robust z-score, replicate 3
LINC01278 | SID442888150 | 1.45 | 0.33 | 0.547
RAB4A | SID442903827 | -1.06 | -1.41 | -1.74
FBXO41 | SID442897268 | -0.149 | 0.184 | -1.14
VPS37D | SID442898880 | -0.583 | -0.534 | -0.53
CLIP3 | SID442898345 | -0.624 | 0.113 | -0.954
TBPL1 | SID442885381 | 1.07 | 2.01 | 1.53
BMP10 | SID442893871 | 0.462 | 0.524 | -0.981
TAPT1 | SID442893603 | -0.107 | 0.0564 | 0.143
SPNS3 | SID442897489 | 0.201 | -0.571 | -0.803
PCK2 | SID442901407 | -0.721 | -1.33 | -0.638
DRC12 | SID442897759 | -0.512 | -0.135 | -0.617
CTSW | SID442895759 | 0.0978 | -0.64 | -0.0672
RCAN3 | SID442883498 | 3.35 (active) | 2.11 | 2.89
ZBP1 | SID442904472 | -1.87 | -1.62 | -1.48
RNF133 | SID442893214 | -0.577 | -0.0551 | 0.86
ADRB3 | SID442894942 | 0.672 | -0.367 | -0.654
SPRTN | SID442895110 | -0.149 | -0.637 | 0.383
BLTP3A | SID442895728 | 0.0826 | -0.938 | 0.254
PCDHA13 | SID442902471 | -1.23 | -1.08 | -0.935
CNOT6L | SID442886160 | 1.58 | 0.911 | 1.25
VOPP1 | SID442891868 | -0.231 | 0.629 | 0.311
CTXN2 | SID442883551 | 2.22 (active) | 3.31 | 2.56
CEP126 | SID442885856 | 1.65 | 0.899 | 1.48
LINC02864 | SID442891890 | 0.244 | 0.367 | 0.0886
ATL2 | SID442891377 | 0.0696 | 0.018 | 0.794
LY6G6C | SID442895122 | -0.422 | 0.0175 | -0.00489
ALKBH4 | SID442898172 | -0.622 | -0.485 | -0.3
ZNF527 | SID442903595 | -1.18 | -1.42 | -1.4
TRMT44 | SID442887295 | 0.825 | 1.57 | 0.439
SYT16 | SID442895917 | 0.121 | -0.227 | -0.554
LOC387901 (retired record) | SID442900969 | -0.729 | -0.848 | -0.922
LOC391609 (retired record) | SID442885670 | 1.47 | 1.4 | 1.36
SYNJ2BP | SID442897461 | -0.25 | -0.62 | -0.295
MCM10 | SID442892078 | -0.736 | 0.32 | 1.05
SHF | SID442891091 | 0.642 | 0.486 | -0.131
KCNJ4 | SID442890604 | 0.357 | 0.0347 | 0.786
CHML | SID442904071 | -1.85 | -1.97 | -0.631
ALPP | SID442901643 | -1.06 | -1.07 | -0.671
KRTAP23-1 | SID442883435 | 3.09 (active) | 1.73 | 3.91
LOC441106 (retired record) | SID442896827 | -0.336 | -0.122 | -0.494
CROCCP2 | SID442891641 | 0.38 | 0.319 | 0.0847
TMEM208 | SID442892376 | 0.804 | -0.603 | 0.324
HAGH | SID442902045 | -0.703 | -1.32 | -0.983
IFT57 | SID442884724 | 2.24 | 1.74 | 1.75
IFITM1 | SID442883377 | 3.31 (active) | 2.18 | 3.78
GDA | SID442896115 | -0.165 | -0.171 | -0.383
PRPF38A | SID442892602 | 0.241 | -0.458 | 0.653
SLC2A5 | SID442898088 | -0.567 | -0.771 | -0.0418
GRM5P1 | SID442897304 | -0.392 | -0.126 | -0.595
GAS2L2 | SID442895668 | -0.103 | -0.308 | -0.167
CA9 | SID442891252 | 0.453 | 0.322 | 0.159
BLVRA | SID442893806 | 0.0106 | 0.462 | -0.447
OR2B11 | SID442897988 | -0.607 | -0.33 | -0.407
CD24 | SID442887733 | 1.09 | 0.128 | 1.34
LOC401495 (retired record) | SID442891840 | 0.827 | 0.0915 | -0.202
ADARB1 | SID442889217 | 0.178 | 0.901 | 0.703
C14orf181 (retired record) | SID442903072 | -0.803 | -1.17 | -1.65
ABCA9 | SID442888886 | 0.986 | 0.83 | 0.121
LOC441994 (retired record) | SID442904499 | -1.5 | -1.72 | -1.8
LYST | SID442890588 | -0.00949 | -0.0806 | 1.28
PLD4 | SID442886943 | 1.6 | 0.874 | 0.598
SLC13A4 | SID442899428 | -0.634 | -0.862 | -0.363
ZZZ3 | SID442892089 | -0.198 | 0.0989 | 0.728
MPDU1 | SID442888712 | -0.253 | 1.72 | 0.563
PSMB6 | SID442900793 | -1.02 | -0.497 | -0.908
CD99 | SID442894069 | 0.399 | -0.3 | -0.166
PACS1 | SID442893427 | -1.47 | 1.37 | 0.259
ZNF248 | SID442888728 | 0.648 | 1.04 | 0.326
